Assay in all cases: co-IP; HT22 cell lysate, endogenous proteins; cells treated with nicotine (1, 10, 100 ng/mL), resveratrol, SRT1720, Selisistat, FK866, Nampt-IN-1, cotinine, β-galactose or an nAChR inhibitor; SIRT1 or NAMPT/PBEF antibody, protein A/G agarose, western blot; IgG as negative control
(Immunoblotting shows a protein as a band on a membrane.)

Amino acid sequences for entries named in this document (tags omitted).
UniProt Q99KQ4: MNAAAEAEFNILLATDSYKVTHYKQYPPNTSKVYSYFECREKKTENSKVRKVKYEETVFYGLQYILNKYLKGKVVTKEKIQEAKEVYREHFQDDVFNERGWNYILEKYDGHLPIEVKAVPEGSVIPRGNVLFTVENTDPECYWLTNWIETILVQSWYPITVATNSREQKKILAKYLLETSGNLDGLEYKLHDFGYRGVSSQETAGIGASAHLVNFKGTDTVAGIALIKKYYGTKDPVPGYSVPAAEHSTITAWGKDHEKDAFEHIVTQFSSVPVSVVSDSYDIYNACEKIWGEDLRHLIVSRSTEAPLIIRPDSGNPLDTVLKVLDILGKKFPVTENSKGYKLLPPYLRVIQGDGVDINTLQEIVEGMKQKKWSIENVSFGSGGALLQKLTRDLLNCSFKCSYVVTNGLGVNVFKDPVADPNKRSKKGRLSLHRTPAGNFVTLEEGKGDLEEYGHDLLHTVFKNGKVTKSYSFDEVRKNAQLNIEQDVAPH
UniProt P02340: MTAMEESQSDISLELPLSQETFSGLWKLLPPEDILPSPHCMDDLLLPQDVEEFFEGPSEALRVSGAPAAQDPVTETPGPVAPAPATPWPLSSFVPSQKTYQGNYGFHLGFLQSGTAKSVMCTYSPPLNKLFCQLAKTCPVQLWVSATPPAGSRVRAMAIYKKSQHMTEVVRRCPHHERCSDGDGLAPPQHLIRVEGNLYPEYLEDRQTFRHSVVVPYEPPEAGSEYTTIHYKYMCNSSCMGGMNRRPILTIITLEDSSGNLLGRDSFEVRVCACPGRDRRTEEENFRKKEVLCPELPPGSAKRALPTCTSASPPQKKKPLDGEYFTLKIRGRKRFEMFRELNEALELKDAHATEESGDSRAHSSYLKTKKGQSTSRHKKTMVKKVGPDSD
UniProt Q8BKJ9: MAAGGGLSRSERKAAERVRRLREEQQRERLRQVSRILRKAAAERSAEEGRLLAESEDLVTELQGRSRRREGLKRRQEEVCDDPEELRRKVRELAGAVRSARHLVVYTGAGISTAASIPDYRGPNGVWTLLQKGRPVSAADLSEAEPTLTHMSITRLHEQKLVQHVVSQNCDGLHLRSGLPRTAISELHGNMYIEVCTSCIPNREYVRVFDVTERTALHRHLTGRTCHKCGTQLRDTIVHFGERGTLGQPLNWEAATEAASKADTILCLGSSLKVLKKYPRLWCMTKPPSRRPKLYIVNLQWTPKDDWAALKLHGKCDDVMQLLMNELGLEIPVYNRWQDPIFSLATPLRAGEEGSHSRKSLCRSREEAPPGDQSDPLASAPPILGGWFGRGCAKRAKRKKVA

Experiment [1] addresses T1, SIRT1 (mouse (endogenous in C57BL/6J tissues, HT22 and BV2 cells)) (UniProt Q923E4).
T1 sequence: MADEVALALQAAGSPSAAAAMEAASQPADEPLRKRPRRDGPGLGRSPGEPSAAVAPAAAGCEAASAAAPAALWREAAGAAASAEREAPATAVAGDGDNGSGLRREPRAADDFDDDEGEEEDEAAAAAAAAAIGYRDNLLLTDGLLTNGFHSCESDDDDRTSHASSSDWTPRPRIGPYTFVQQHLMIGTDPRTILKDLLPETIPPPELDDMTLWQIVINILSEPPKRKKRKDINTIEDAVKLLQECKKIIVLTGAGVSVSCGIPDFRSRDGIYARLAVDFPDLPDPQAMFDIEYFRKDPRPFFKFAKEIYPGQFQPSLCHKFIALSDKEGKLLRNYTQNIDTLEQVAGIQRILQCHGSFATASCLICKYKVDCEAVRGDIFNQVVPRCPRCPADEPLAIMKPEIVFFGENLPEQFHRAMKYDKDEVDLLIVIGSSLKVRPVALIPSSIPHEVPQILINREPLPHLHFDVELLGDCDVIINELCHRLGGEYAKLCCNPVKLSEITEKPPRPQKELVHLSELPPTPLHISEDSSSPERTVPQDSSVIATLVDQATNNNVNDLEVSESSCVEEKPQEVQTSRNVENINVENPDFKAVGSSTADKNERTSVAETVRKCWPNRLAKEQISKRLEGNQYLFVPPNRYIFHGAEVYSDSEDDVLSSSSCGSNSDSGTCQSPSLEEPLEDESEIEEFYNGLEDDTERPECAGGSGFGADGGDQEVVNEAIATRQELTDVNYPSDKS

Experiment [2] deals with nicotinamide phosphoribosyl transferase (NAMPT) (mouse (endogenous in C57BL/6J tissues and HT22 cells)) (UniProt Q99KQ4).
The target of experiment [3] is T1, SIRT1 (mouse (endogenous in C57BL/6J tissues, HT22 and BV2 cells)). The source holds these as a separate data set.

Like-named read-outs stand apart in the source and are kept apart here. These are yes or no findings as the source states them, for the method shown. Binding seen in cells or lysates may run through a third protein. Some entries that bind do so weakly or less than the wild type.

Regarding p53 (from UniProt P02340 1-390), the binding entry in experiment [1] is reported as “binds”.

As to SIRT7 (from UniProt Q8BKJ9 1-402), the binding result in experiment [2] is “binds”.

B1: PGC-1α (protein, UniProt O70343 1-797)
chain: MAWDMCSQDSVWSDIECAALVGEDQPLCPDLPELDLSELDVNDLDTDSFLGGLKWCSDQSEIISNQYNNEPANIFEKIDEENEANLLAVLTETLDSLPVDEDGLPSFDALTDGAVTTDNEASPSSMPDGTPPPQEAEEPSLLKKLLLAPANTQLSYNECSGLSTQNHAANHTHRIRTNPAIVKTENSWSNKAKSICQQQKPQRRPCSELLKYLTTNDDPPHTKPTENRNSSRDKCASKKKSHTQPQSQHAQAKPTTLSLPLTPESPNDPKGSPFENKTIERTLSVELSGTAGLTPPTTPPHKANQDNPFKASPKLKPSCKTVVPPPTKRARYSECSGTQGSHSTKKGPEQSELYAQLSKSSGLSRGHEERKTKRPSLRLFGDHDYCQSLNSKTDILINISQELQDSRQLDFKDASCDWQGHICSSTDSGQCYLRETLEASKQVSPCSTRKQLQDQEIRAELNKHFGHPCQAVFDDKSDKTSELRDGDFSNEQFSKLPVFINSGLAMDGLFDDSEDESDKLSYPWDGTQPYSLFDVSPSCSSFNSPCRDSVSPPKSLFSQRPQRMRSRSRSFSRHRSCSRSPYSRSRSRSPGSRSSSRSCYYYESSHYRHRTHRNSPLYVRSRSRSPYSRRPRYDSYEAYEHERLKRDEYRKEHEKRESERAKQRERQKQKAIEERRVIYVGKIRPDTTRTELRDRFEVFGEIEECTVNLRDDGDSYGFITYRYTCDAFAALENGYTLRRSNETDFELYFCGRKQFFKSNYADLDTNSDDFDPASTKSKYDSLDFDSLLKEAQRSLRR
With B1, the binding result in experiment [3] is recorded as “binds”.

Values taken from PMC9935903.
